Each structure is given as a SMILES string. Several values for one entry are separate records, joined by “and”; a condition that tells them apart may be missing. Equal values may be shown once. The list shows a part of the results. These are further read-outs of the screen, such as a control signal, another cell line or another target. No call is given for them. The list favours compounds with an active or inconclusive main result. Words in brackets tell the shape of the fitted curve; partial curves, single points and poor fits give uncertain potencies.

This assay in a line: qHTS Assay to Find Inhibitors of Chronic Active B-Cell Receptor Signaling. The conditions noted are these: ABC-DLBCL IkBa-CBG/CBR reporter, luminescence ratio (green luciferase fused to IkBa over red control in TMD8 lymphoma cells), 4 h. The essentials: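 Compounds up to 46 uM were incubated four hours with TMD8 cells whose green CBG68 luciferase is fused to IkappaBalpha; red CBR luminescence normalised the signal, and concentration-effect curves were fitted to fusion, red and ratio data.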
In general terms: In qHTS, concentration-response curves come from the screen itself.

The mark [1] stands for this setting: measured here: CBR red luminescence, cell number.
The mark [2] stands for this setting: measured here: IkBa-CBG green luminescence.

Broadly, the AC50 is the concentration at which the activity in the assay is half-maximal. `O=C(NCCc1ccc(O)cc1)c1ccc(Cl)cc1`: under setting [1], the AC50 was 10 µM [falling, partial curve].

Take `COc1cccc(-c2cc(=O)c3cc(NC(C)=O)ccc3[nH]2)c1`: under setting [1], the AC50 is 18.4 µM [falling, single point]. Same read-out and setting: for `Cc1cccc(NC(=O)COc2ccc(Br)cc2/C=N/O)c1` the value was 18.4 µM [falling, single point]. The same measure, in the same setting: for `COc1ccccc1C(=O)NNC(=O)c1ccccc1` the value was 6.31 µM [falling, partial curve]; for `CCOC(=O)c1oc2cccc(OC(C)=O)c2c1C`, 0.631 µM [falling, full curve]; for `Cc1ccc(NC(=O)COc2ccccc2C#N)cc1S(=O)(=O)N1CCCCCC1`, 25.9 µM [falling, single point]. The same measure, in the same setting: for `O=C(c1c(Cl)cccc1Cl)N1CCN(c2ncccn2)CC1` the value was 0.708 µM [rising, full curve, poor fit]. As for `CCOC(=O)Nc1cc(C(=O)OC)ccc1C`, the AC50 is 18.4 µM [rising, partial curve] under setting [1] and 10.3 µM [falling, partial curve, poor fit] under setting [2].

Take `O=C(Cn1cccc1)N1CCc2ccccc21`: the AC50 under setting [1] was 2.51 µM [rising, full curve, poor fit]. The same measure, in the same setting: for `CC(=O)c1ccc(S(=O)(=O)Oc2ccc(C(=O)O)cc2Cl)cc1` the value was 23.1 µM [falling, single point].

Regarding `COc1ccc(C2=Nn3c(nnc3-c3ccccc3Cl)SC2)cc1OCC1CC1`, the AC50 is 2.31 µM [rising, full curve, poor fit] under setting [1] and 0.731 µM [falling, full curve] under setting [2].

As to `COc1ccc(CC(NC(C)=O)C(=O)N2CCN(C(=O)Nc3cccc(F)c3)CC2)cc1OC` (stereo not drawn), the AC50 under setting [1] was 3.16 µM [falling, partial curve, poor fit]. Same read-out and setting: for `N/C(=N\OC(=O)Cc1cccs1)c1ccc([N+](=O)[O-])cc1` the value was 0.0411 µM [rising, full curve, poor fit]; for `O=C(Nc1ccccn1)c1sc2cccc(F)c2c1Cl`, 3.98 µM [rising, full curve, poor fit].

For the molecule `O=C(N/N=C/c1ccccc1Cl)c1ccc(F)cc1`, the AC50 under setting [1] is 15.8 µM [falling, partial curve, poor fit]. Still for that read-out and setting: for `O=S(=O)(c1ccc(Oc2ccccc2)cc1)N1CCOCC1` the value was 0.259 µM [rising, full curve].

Consider `CC(C)[C@H](NC(N)=O)C(=O)NNC(=O)COc1cccc(C(F)(F)F)c1`, for which, under setting [1], the AC50 is 0.501 µM [rising, full curve, poor fit]. On to `O=C(CO/N=C/c1ccccc1O)NNC(=O)c1ccccc1Cl`, for which the AC50 was 14.6 µM [rising, partial curve, poor fit] under setting [1] and 11.6 µM [falling, partial curve, poor fit] under setting [2]. `CCN1CCCC1CNS(=O)(=O)c1cc(Br)cc2c1N(C(=O)C1CC1)CC2` (stereo not drawn): the AC50 under setting [1] was 20.6 µM [rising, partial curve, poor fit]. On the same count and under the same terms, for `Cc1cccc(Cn2ccc(N)n2)c1` the value was 25.1 µM [falling, single point]; for `O=C(Nc1ccc(C(F)(F)F)cc1)c1cc(S(=O)(=O)N2CCCc3ccccc32)ccc1F`, 3.98 µM [falling, full curve].

Take `O=C(Nc1cccc2c1CCCC2)c1ccncc1`: under setting [1], the AC50 is 16.4 µM [rising, single point]. As for `Cc1nn(-c2ccc3ccccc3c2)c(=O)c2ccccc12`, under setting [1], the AC50 is 6.31 µM [rising, single point]. The same measure, in the same setting: for `COCCN(C(=O)COC(=O)CCc1c[nH]c2ccccc12)c1c(N)n(Cc2ccccc2)c(=O)[nH]c1=O` the value was 29.1 µM [falling, single point]. The same measure, in the same setting: for `COCCNc1nc(N)c([N+](=O)[O-])c(Nc2ccc(F)cc2)n1` the value was 0.708 µM [rising, full curve, poor fit]. On to `CN(C(=O)/C=C/c1ccc([N+](=O)[O-])s1)c1ccccc1`, for which the half-maximal activity concentration (AC50) under setting [1] was 17.8 µM [falling, single point]. The same measure, in the same setting: for `O=C(Cn1nnc(-c2ccccc2)n1)Nc1cccc(S(=O)(=O)N2CCCC2)c1` the value was 29.1 µM [falling, single point]; for `NC(=O)CSc1nc(-c2ccccc2)nc2ccccc12`, 7.94 µM [falling, partial curve].

Consider `O=C(/C=C/NCc1ccc(F)cc1)c1ccccc1`, for which, under setting [1], the AC50 was 2.59 µM [rising, full curve]. Still for that read-out and setting: for `COC(=O)c1ccccc1N/C=C/C(=O)c1ccc(Br)cc1` the value was 8.2 µM [falling, partial curve]. As for `Cn1c(SCC(=O)Nc2cccc3ccccc23)nc(O)cc1=O`, the AC50 was 0.517 µM [falling, full curve] under setting [1] and 0.517 µM [rising, full curve, poor fit] under setting [2].

Regarding `Cc1ccc(-c2nnc(Nc3ccc4c(c3)OCO4)c3ccccc23)cc1S(=O)(=O)NCCO`, the AC50 under setting [1] was 6.51 µM [falling, partial curve].

With `CCC(C)C(NC(N)=O)C(=O)Nc1ccc(C(=O)OC)cc1` (stereo not drawn), under setting [1], the half-maximal activity concentration (AC50) is 35.5 µM [falling, single point]. On the same count and under the same terms, for `Cc1ccc(Nc2nc(CSc3nnc(-c4ccccc4C)n3C)cs2)cc1` the value was 32.6 µM [falling, single point]; for `COCCn1c(=S)[nH]c2cc(OC)c(OC)cc2c1=O`, 0.651 µM [falling, full curve, poor fit]; for `COc1ccc(-c2noc(C3CCCN(C(=O)c4c(F)cccc4F)C3)n2)cc1OC` (stereo not drawn), 1.26 µM [rising, full curve, poor fit]. Regarding `CCOc1cc(C=C2C(=O)c3ccccc3C2=O)ccc1OCC(=O)Nc1ccc(C)cc1`, under setting [1], the concentration at half-maximal activity (AC50) was 0.164 µM [rising, full curve, poor fit]. On the same count and under the same terms, for `CC(/C=N/NC(=O)NC1CCCCC1)=C\c1ccccc1` the value was 11.2 µM [rising, partial curve]; for `O=C(CNC(=O)c1ccc(Cl)cc1)OCCCOC(=O)CNC(=O)c1ccc(Cl)cc1`, 10 µM [rising, partial curve]; for `COc1ccc(-c2nc(CSCC(=O)NC3CCCc4ccccc43)c(C)o2)cc1OC` (stereo not drawn), 0.164 µM [rising, full curve, poor fit].

For `COc1ccc(OC)c(-c2nnc3n2N=C(c2ccc(OC)c(OC)c2)CS3)c1`, the AC50 under setting [1] is 651 nM [rising, full curve, poor fit] and 1.3 µM [rising, full curve]; the AC50 under setting [2] is 1.46 µM [falling, full curve] and 580 nM [falling, full curve]. Consider `Cn1c(NN)nc2sc3c(c2c1=O)CCC3`, for which the AC50 under setting [1] was 2.91 µM [falling, full curve].

With `CCOc1ccc(CC(=O)OCN2C(=O)c3ccccc3C2=O)cc1`, under setting [1], the AC50 was 10 µM [rising, partial curve, poor fit].

`CCCc1cc(=O)[nH]c(SCC(=O)c2c(N)n(C)c(=O)n(C)c2=O)n1`: the AC50 under setting [1] is 1.12 µM [rising, partial curve]. The same measure, in the same setting: for `Cc1noc(C)c1C(=O)Nc1sc2c(c1C(N)=O)CCC2` the value was 0.731 µM [falling, full curve, poor fit]. On the same count and under the same terms, for `COc1cc(OC)cc(C(=O)NC(C)CNc2ccc(Cl)cc2[N+](=O)[O-])c1` (stereo not drawn) the value was 35.5 µM [falling, single point]; for `Oc1ccc(-c2ccccc2)cc1CN1CCCCCC1`, 35.5 µM [falling, single point]; for `CCOc1ccccc1NC(=O)Nc1ccc2c(c1)CCC2`, 35.5 µM [falling, single point]. Still for that read-out and setting: for `COc1cccc(NS(=O)(=O)c2ccc3c(c2)NC(=O)C(C)S3)c1` (stereo not drawn) the value was 22.4 µM [falling, single point]. Turning to `CCOC(=O)c1ccc(Oc2nc(C)nc3c2oc2ccccc23)cc1`, the AC50 under setting [1] is 0.355 µM [rising, full curve, poor fit]. On the same count and under the same terms, for `COC(=O)c1cc(NC(=O)CN(c2ccccc2OC)S(=O)(=O)c2ccccc2)ccc1Cl` the value was 11.2 µM [falling, partial curve, poor fit]; for `COC(=O)c1ccc(NC(=O)C(=O)c2cccn2C)cc1`, 7.94 µM [falling, partial curve]. Same read-out and setting: for `Cc1ccc(C)c(NC(=O)COC(=O)c2cc(=O)c3ccccc3o2)c1` the value was 20.6 µM [rising, partial curve, poor fit]; for `COc1ccc(S(=O)(=O)NCCSCc2ccco2)cc1Cl`, 4.11 µM [rising, partial curve, poor fit]. Still for that read-out and setting: for `C/C(CC1CC(C)(C)OC1=O)=N/Nc1nc(-c2ccccc2)cs1` (stereo not drawn) the value was 16.4 µM [falling, partial curve]; for `CC(c1ccco1)N(C(=O)c1ccc(Cl)s1)c1ccccn1` (stereo not drawn), 0.891 µM [rising, partial curve, poor fit]; for `Cc1cc(C)cc(OCC(=O)Nc2ccc(F)cc2)c1`, 14.1 µM [falling, partial curve, poor fit].

For `COc1cccc(N2CCN(CC(=O)Nc3nc(C)c(C(=O)N(C)C)s3)CC2)c1`, the AC50 under setting [1] is 3.98 µM [rising, full curve, poor fit]. On the same count and under the same terms, for `CC(C)CNC(=O)C(=O)Nc1ccc2c(c1)N(S(=O)(=O)c1cccs1)CCC2` the value was 4.11 µM [rising, single point].

With `Cc1[nH]c2ccccc2c1SCc1nnc(SCc2ccccc2)n1C`, the AC50 under setting [1] is 0.1 µM [rising, full curve, poor fit]. Take `CC(C)CNC(C(=O)Nc1ccc([N+](=O)[O-])cc1Br)c1ccccc1` (stereo not drawn): the AC50 under setting [2] was 18.4 µM [rising, partial curve, poor fit]. `O=C(NCN1CCN(CCO)CC1)c1cnccn1`: the AC50 under setting [1] is 0.00461 µM [rising, full curve, poor fit].

`CCCC1(c2ccccc2)NC(=O)N(CC(=O)NCc2ccc(C)cc2)C1=O` (stereo not drawn): the AC50 under setting [1] is 0.794 µM [rising, full curve, poor fit].

Source of the values: PubChem BioAssay AID493014 (National Center for Advancing Translational Sciences (NCATS), 2011).
